{"source": "paper PMC6926464", "about": "“Gating control of the cardiac sodium channel Nav1.5 by its β3-subunit involves distinct roles for a transmembrane glutamic acid and the extracellular domain” (The Journal of Biological Chemistry, 2019)", "molecular_target": "Nav1.5 α-subunit with a C-terminal HA tag (human) (UniProt Q14524)", "assay": "co-IP; HEK293F cells co-transfected with Nav1.5 HA and EGFP-tagged β3 or EGFP alone; lysis in 50 mM Tris, 150 mM NaCl, 1% Triton X-100; IP with monoclonal anti-HA and protein G-agarose at 4 °C; bound and flow-through fractions blotted for HA and EGFP", "note": "Results are given in words; binding and its absence hold for the method and conditions named. In cells and extracts the contact can be indirect. Some binding calls cover weakened binding; strength is not graded here. Where a sequence is shown, tags or fusion partners need not be part of it."}
{"binder": "full-length WT β3-subunit with C-terminal EGFP tag (natural protein, human, UniProt Q9NY72 23-215, looked up, voltage-gated sodium channel auxiliary β3-subunit, full-length; glycosylated (multiple bands on SDS-PAGE); also called WT-β3-EGFP; FL β3-EGFP; source: HEK293F, transfected (pcDNA3 WT-β3-EGFP), in lysate; not shown: EGFP, C-terminal, kept) FPVCVEVPSETEAVQGNPMKLRCISCMKREEVEATTVVEWFYRPEGGKDFLIYEYRNGHQEVESPFQGRLQWNGSKDLQDVSITVLNVTLNDSGLYTCNVSREFEFEAHRPFVKTTRLIPLRVTEEAGEDFTSVVSEIMMYILLVFLTLWLLIEMIYCYRKVSKAEEAAQENASDYLAIPSENKENSAVPVEE", "values": [{"measurement": "binding", "value": "binds"}]}
